Assay results from patent US20110263679A1.
These are yes or no findings as the source states them, for the method shown. Binding seen in cells or lysates may run through a third protein. Some entries that bind do so weakly or less than the wild type. Where a sequence is shown, tags or fusion partners need not be part of it.

Protein sequences, listed by entry. Tags and fused reporters are not part of them. Lines headed by an entry give the natural chain unless they say otherwise; changes in a name come on top.
UniProt P09874: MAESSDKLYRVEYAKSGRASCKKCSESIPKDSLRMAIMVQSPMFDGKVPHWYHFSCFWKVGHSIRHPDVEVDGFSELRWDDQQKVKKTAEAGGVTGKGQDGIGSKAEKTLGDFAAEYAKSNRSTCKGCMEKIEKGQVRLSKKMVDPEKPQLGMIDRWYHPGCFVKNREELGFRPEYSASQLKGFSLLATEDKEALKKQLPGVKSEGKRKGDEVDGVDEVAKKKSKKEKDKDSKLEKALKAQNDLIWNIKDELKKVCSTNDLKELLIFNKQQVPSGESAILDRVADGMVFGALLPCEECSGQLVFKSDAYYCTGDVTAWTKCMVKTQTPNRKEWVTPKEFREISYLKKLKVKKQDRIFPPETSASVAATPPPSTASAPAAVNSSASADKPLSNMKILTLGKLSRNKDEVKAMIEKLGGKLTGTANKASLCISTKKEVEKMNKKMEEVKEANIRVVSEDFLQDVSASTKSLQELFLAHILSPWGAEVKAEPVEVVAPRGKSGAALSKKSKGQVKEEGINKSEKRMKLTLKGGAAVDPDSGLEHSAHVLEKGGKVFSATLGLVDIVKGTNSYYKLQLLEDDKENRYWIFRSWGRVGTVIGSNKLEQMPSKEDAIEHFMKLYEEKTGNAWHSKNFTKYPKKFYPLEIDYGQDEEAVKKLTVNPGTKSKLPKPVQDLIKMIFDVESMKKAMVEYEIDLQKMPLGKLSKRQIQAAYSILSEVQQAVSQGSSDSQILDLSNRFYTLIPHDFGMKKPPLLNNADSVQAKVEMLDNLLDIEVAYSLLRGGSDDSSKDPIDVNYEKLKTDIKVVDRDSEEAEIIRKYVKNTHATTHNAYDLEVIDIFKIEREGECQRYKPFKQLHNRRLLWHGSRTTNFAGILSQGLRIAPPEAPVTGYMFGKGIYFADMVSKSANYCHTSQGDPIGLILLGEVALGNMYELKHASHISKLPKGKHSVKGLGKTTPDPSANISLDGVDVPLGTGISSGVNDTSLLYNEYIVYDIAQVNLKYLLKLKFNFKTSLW

Tests used:
[1] = biological target: PARP1 protein (endogenous, HEK293 cells) (Homo sapiens (Human)) (UniProt P09874); assay: co-immunoprecipitation with anti-Flag M2-agarose from HEK293 lysate; LC-MS/MS and western blot with anti-PARP1
[2] = biological target: PARP1 protein (endogenous, HEK293 cells) (Homo sapiens (Human)) (UniProt P09874); assay: co-immunoprecipitation with anti-Flag M2-agarose from HEK293 lysate; silver stain, LC-MS/MS, western blot with anti-PARP1
[3] = biological target: PARP1-Myc (Myc-tagged PARP1), expressed in HEK293 cells (Homo sapiens (Human)) (UniProt P09874); assay: co-immunoprecipitation with anti-Myc antibody from co-transfected HEK293 cells; immunoblot with anti-Flag
[4] = biological target: PARP1 protein (endogenous, HEK293 cells) (Homo sapiens (Human)) (UniProt P09874); assay: co-immunoprecipitation (summary in the discussion)
[5] = biological target: PARP1-Myc (Myc-tagged PARP1), expressed in HEK293 cells (Homo sapiens (Human)) (UniProt P09874); assay: co-immunoprecipitation with c-Myc antibody from co-transfected HEK293 cells; western blot with anti-Flag

- binding [1]: binds
- binding [2]: binds
- binding [3]: binds
- binding [4]: binds
- binding [5]: binds
B1: Flag-tagged C12ORF48 (pCAGGSn3xFlag-C12ORF48-HA), expressed in HEK293 cells (protein, not shown: small tags and cut ends)
chain: MDVTDHYEDVRKIYDDFLKNSNMLDLIDVYQKCRALTSNCENYNTVSPSQLLDFLSGKQYAVGDETDLSIPTSPTSKYNRDNEKVQLLARKIIFSYLNLLVNSKNDLAVAYILNIPDRGLGREAFTDLKHAAREKQMSIFLVATSFIRTIELGGKGYAPPPSDPLRTHVKGLSNFINFIDKLDEILGEIPNPSIAGGQILSVIKMQLIKGQNSRDPFCKAIEEVAQDLDLRIKNIINSQEGVVALSTTDISPARPKSHAINHGTAYCGRDTVKALLVLLDEEAANAPTKNKAELLYDEENTIHHHGTSILTLFRSPTQVNNSIKPLRERICVSMQEKKIKMKQTLIRSQFACTYKDDYMISKDNWNNVNLASKPLCVLYMENDLSEGVNPSVGRSTIGTSFGNVHLDRSKNEKVSRKSTSQTGNKSSKRKQVDLDGENILCDNRNEPPQHKNAKIPKKSNDSQNRLYGKLAKVAKSNKCTAKDKLISGQAKLTQFFRL
